Taken from: PubChem BioAssay AID1053208 (Peter MacCallum Cancer Centre, 2014)
The whole screen tested about 17,000 reagents; shown is an unselected part. 788 of them (4.7%) were called active. 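Calls rest on z-score classes alone; an extra cut-off of viability at most 70% of control was not applied to them.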 Entries without a mark were called inactive. Reagents against one gene are numbered here. A reagent listed more than once was tested more than once; the source does not tell the runs apart.

Screen: 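Find knock-downs that sensitise mouse osteosarcoma cells to doxorubicin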 (primary screen)
Cell system: mouse osteosarcoma cells, early-passage culture from an engineered mouse model of fibroblastic bone tumour
Reagents: siRNA pool against mouse genes, 40 nM
Timing: about 120 h (48 h before drug, then 72 h with drug)
Challenge: doxorubicin 100 nM for 72 h, roughly 30-40% inhibitory dose
Read-out: 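Luminescent ATP signal taken as viability with or without 100 nM doxorubicin for 72 h; mean of two wells set against non-targeting siRNA and turned into robust z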
Reading the numbers: viability z-score with doxorubicin and doxorubicin viability vs non-targeting: higher = more viable cells under doxorubicin; viability z-score without drug: higher = more viable cells with knock-down alone; z-score of drug to no-drug ratio: higher = less drug sensitisation by knock-down
Active means: 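Called active if knock-down leaves viability unchanged without drug (z within -2 to 2) but lowers it with doxorubicin (z at or under -2)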

no.	gene symbol	reagent	combined z-score class	viability z-score with doxorubicin	viability z-score without drug	z-score of drug to no-drug ratio	doxorubicin viability vs non-targeting
1	Hck	1	no change with or without drug	1.35	0.17	1.35	1.06
2	Gse1	1	no change with or without drug	0.11	-0.17	0.34	0.95
3	Mettl4	1	low cell count with doxorubicin only (active)	-2.7	-0.51	-2.47	0.7
4	Or3a4	1	no change with or without drug	0.34	0.51	0.11	0.97
5	Zfp759	1	no change with or without drug	-1.35	-0.51	-1.01	0.82
6	Hcst	1	no change with or without drug	0.45	-1.52	1.8	0.98
7	Creb1	1	no change with or without drug	-0.9	-0.17	-0.79	0.86
8	Creb1	2	no change with or without drug	1.57	0.84	1.12	1.08
9	Or10d3	1	no change with or without drug	-1.12	-0.51	-0.79	0.84
10	Slitrk6	1	low cell count with doxorubicin only (active)	-2.92	-0.84	-2.47	0.68
11	Guf1	1	no change with or without drug	-0.67	-0.51	-0.22	0.88
12	Upk3a	1	low cell count with doxorubicin only (active)	-2.7	-0.51	-2.47	0.7
13	Enoph1	1	high cell count with and without drug	2.36	3.04	0.45	1.15
14	Pglyrp3	1	low cell count with doxorubicin only (active)	-2.02	-0.84	-1.57	0.76
15	Tns4	1	no change with or without drug	1.12	-0.17	1.46	1.04
16	Dhrs3	1	no change with or without drug	0.34	1.18	-0.34	0.97
17	Trim30b	1	no change with or without drug	-0.45	-0.51	0	0.9
18	Utp15	1	no change with or without drug	0.79	0.17	0.79	1.01
19	Clps	1	no change with or without drug	-0.67	-0.51	-0.22	0.88
20	Akr1e1	1	no change with or without drug	-0.45	-0.51	0	0.9
21	Dscaml1	1	no change with or without drug	-0.67	1.85	-1.69	0.88
22	Slco4a1	1	no change with or without drug	0.67	0	0.79	1
23	Sntb2	1	no change with or without drug	1.35	-1.18	2.47	1.06
24	Glul	1	no change with or without drug	-1.57	-0.51	-1.24	0.8
25	Pcsk4	1	low cell count with doxorubicin only (active)	-2.02	-0.17	-1.91	0.76
26	Chad	1	no change with or without drug	-1.46	-0.51	-1.12	0.81
27	Zfp277	1	no change with or without drug	1.12	1.18	0.45	1.04
28	Pcdhga3	1	no change with or without drug	-0.67	-0.84	0	0.88
29	Kcnj6	1	no change with or without drug	1.01	-0.84	1.8	1.03
30	Wfdc5	1	no change with or without drug	0.9	0.17	0.9	1.02
31	Muc19	1	no change with or without drug	-0.67	-0.84	0	0.88
32	Dnmt3l	1	no change with or without drug	0.22	-0.51	0.67	0.96
33	Acaca	1	no change with or without drug	1.35	0.84	0.9	1.06
34	Gnpda2	1	no change with or without drug	-1.35	-0.84	-0.79	0.82
35	6820408C15Rik	1	no change with or without drug	0.9	-0.34	1.35	1.02
36	Cd38	1	no change with or without drug	-0.9	-0.34	-0.67	0.86
37	Pou2af1	1	no change with or without drug	0.9	1.85	-0.22	1.02
38	D630023F18Rik	1	no change with or without drug	0.22	1.85	-0.79	0.96
39	Mapk8ip1	1	no change with or without drug	0.22	0	0.34	0.96
40	Hoxb13	1	no change with or without drug	-0.22	-1.01	0.56	0.92
41	Izumo4	1	no change with or without drug	-0.45	-0.84	0.22	0.9
42	Ppp1r14d	1	no change with or without drug	0.56	1.52	-0.34	0.99
43	Igtp	1	no change with or without drug	-1.12	-0.51	-0.79	0.84
44	Ccdc88c	1	no change with or without drug	1.57	0.51	1.35	1.08
45	Snrpb2	1	no change with or without drug	1.01	-0.51	1.57	1.03
46	Appl1	1	no change with or without drug	-0.79	0.34	-0.9	0.87
47	Appl1	1	no change with or without drug	0.56	0.67	0.22	0.99
48	Pfkp	1	high cell count without drug only	0.67	3.71	-1.46	1
49	Psmb11	1	no change with or without drug	0.11	0.34	0	0.95
50	Serpinc1	1	no change with or without drug	0.22	0.51	0	0.96

5 successive entries already listed, for reference:
no.	gene symbol	reagent	combined z-score class	viability z-score with doxorubicin	viability z-score without drug	z-score of drug to no-drug ratio	doxorubicin viability vs non-targeting
34	Gnpda2	1	no change with or without drug	-1.35	-0.84	-0.79	0.82
35	6820408C15Rik	1	no change with or without drug	0.9	-0.34	1.35	1.02
36	Cd38	1	no change with or without drug	-0.9	-0.34	-0.67	0.86
37	Pou2af1	1	no change with or without drug	0.9	1.85	-0.22	1.02
38	D630023F18Rik	1	no change with or without drug	0.22	1.85	-0.79	0.96
